From PubChem BioAssay record AID912 (NCATS, 2007).

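A cell-based FRET test of anthrax lethal toxin entry, tracked through the 460 nm emission signal; the cell line is not named here.
Each compound was tested as a concentration series from about 0.0005 to 40 µM.
The number is the fitted AC50 of the 460 nm signal alone; lower values mean a more potent effect. A falling signal goes with compounds filed as inhibitors or cytotoxic, a rising one with activators or fluorescent compounds (inferred from the filed classes).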

Values are in µM.
Common to all entries: measured here: 460 nm channel.
This is a side read-out of the assay, for part of the compounds, not drawn at random.
Potencies fitted to partial, single-point or poorly fitting curves are rough.
The first word of each remark tells which way the curve ran; it can be opposite to the aim of the assay.

structure	AC50 (µM)	curve
Fc1ccc(-c2nnc(CN3CCN(c4ncc(C(F)(F)F)cc4Cl)CC3)o2)cc1	0.05012	falling, full curve, poor fit
Cc1ccccc1OCC(=O)Nc1ccccc1N1CCCCC1	10	falling, single point
Cc1c(C(=O)NCc2ccccc2)oc2ccc(S(=O)(=O)N3CCCC3)cc12	12.59	falling, partial curve
Cc1cc(NC(=O)CN2C(=O)CC(c3ccco3)Sc3ccccc32)no1 (configuration not stated)	31.62	falling, single point
CCCCC(CC)Cn1c(N)c(C#N)c2nc3ccccc3nc21 (configuration not stated)	10	rising, partial curve
O=C(NCc1ccc2c(c1)OCO2)C1CCC(CNc2c(N3CCCC3)c(=O)c2=O)CC1 (configuration not stated)	12.59	rising, partial curve
COc1ccccc1Nc1nc(N)nc(CN2CCN(c3ccccc3)CC2)n1	5.012	rising, single point
CCCCN(CCCC)S(=O)(=O)c1ccc2oc(C(=O)N3CCOCC3)c(C)c2c1	10	rising, partial curve
COC(=O)c1c(NC(=O)CSc2nnc(-c3cccnc3)n2Cc2ccco2)sc(C)c1C	10	rising, partial curve
COc1ccccc1-c1ccc2ncnc(N(C)Cc3ccco3)c2c1	15.85	falling, single point
c1ccc2c(NC3=NCCS3)cccc2c1	0.1259	falling, full curve, poor fit
COc1cc(N)ccc1Cc1ccc(N)cc1OC	31.62	falling, single point
Cc1ccc(Cl)cc1N1CCN(C(=O)COc2ccc(S(=O)(=O)NC(C)C)cc2)CC1	6.31	falling, partial curve
COc1ccccc1CC(=O)Nc1ccc(-c2nnc(-c3ccco3)o2)cc1	12.59	falling, single point
COc1cccc(-c2nnc(NC(=O)c3ccc(S(=O)(=O)N(CC(C)C)CC(C)C)cc3)o2)c1	5.012	rising, single point
O=c1c2cc3c(cc2[nH]c(=S)n1CCN1CCOCC1)OCO3	0.03162	falling, full curve, poor fit
CC(C)CNc1cc(=O)n(C)c(=O)n1C	25.12	rising, single point
COc1ccc(C(=O)N2CCC3(CCCN(c4ccccn4)C3)CC2)cc1	7.943	rising, partial curve
O=C1c2ccccc2C(=O)N1CCSc1nnc(-c2ccco2)n1Cc1ccccc1	31.62	falling, partial curve
Cc1nc2sccn2c(=O)c1CCN1CCC(=C(c2ccc(F)cc2)c2ccc(F)cc2)CC1	2.512	rising, full curve
O=C(NCc1ccco1)c1ccc2c(c1)C(=O)N(Cc1ccccc1)C2=O	0.005012	falling, full curve, poor fit
COc1cccc(C2=NO[C@@H]3C(=O)N(c4ccc5c(c4)OCCO5)C(=O)[C@H]23)c1OC	2.512	rising, single point
CCOC(=O)c1cccc(NC(=O)c2cc3sccc3n2C)c1	12.59	falling, partial curve
Cn1cccc1C(=O)N1CCC2(CCCN(c3ccncc3)C2)CC1	12.59	falling, partial curve
CS(=O)(=O)N1CCC(C(=O)Nc2cccc(C(F)(F)F)c2)CC1	0.5012	falling, single point
COc1ccc(Nc2nc(OC)nc(N3CCN(c4ccc(OC)cc4)CC3)n2)cc1	5.012	falling, partial curve
CCCCOc1ccccc1NC(=O)c1ccco1	1	falling, full curve, poor fit

The last 3 entries again:

{"structure": "CS(=O)(=O)N1CCC(C(=O)Nc2cccc(C(F)(F)F)c2)CC1", "AC50 (µM)": "0.5012", "curve": "falling, single point"}
{"structure": "COc1ccc(Nc2nc(OC)nc(N3CCN(c4ccc(OC)cc4)CC3)n2)cc1", "AC50 (µM)": "5.012", "curve": "falling, partial curve"}
{"structure": "CCCCOc1ccccc1NC(=O)c1ccco1", "AC50 (µM)": "1", "curve": "falling, full curve, poor fit"}